# Patent US10254288B2, “Method for species-independent measurement of complement activation in animals” (Quidel Corporation, priority 2013, dated 2019)
# Some entries share one result that the patent states for a list of compounds.
# Test system: C consumption in dog plasma
# Test: C consumption in dogs in vivo, pan-species C3 method, human SC5b-9 kit
# Settings: vincristine 0.5 mg/kg bolus, carboplatin 280 mg/m2 infusion over 20 min; samples before and 30 min after
compound,measurement,value
CC[C@]1(O)C[C@H]2CN(CCc3c([nH]c4ccccc34)[C@@](C(=O)OC)(c3cc4c(cc3OC)N(C=O)[C@H]3[C@@](O)(C(=O)OC)[C@H](OC(C)=O)[C@]5(CC)C=CCN6CC[C@]43[C@@H]65)C2)C1 [Vincristine],C consumption in dog plasma,20-57%
